Measured values published in paper PMC9631078.
These are yes or no findings as the source states them, for the method shown. Binding seen in cells or lysates may run through a third protein. Some binding calls cover weakened binding; strength is not graded here. Where a sequence is shown, tags or fusion partners need not be part of it.

Protein sequences, listed by entry. Tags and fused reporters are not part of them.
UniProt P46937: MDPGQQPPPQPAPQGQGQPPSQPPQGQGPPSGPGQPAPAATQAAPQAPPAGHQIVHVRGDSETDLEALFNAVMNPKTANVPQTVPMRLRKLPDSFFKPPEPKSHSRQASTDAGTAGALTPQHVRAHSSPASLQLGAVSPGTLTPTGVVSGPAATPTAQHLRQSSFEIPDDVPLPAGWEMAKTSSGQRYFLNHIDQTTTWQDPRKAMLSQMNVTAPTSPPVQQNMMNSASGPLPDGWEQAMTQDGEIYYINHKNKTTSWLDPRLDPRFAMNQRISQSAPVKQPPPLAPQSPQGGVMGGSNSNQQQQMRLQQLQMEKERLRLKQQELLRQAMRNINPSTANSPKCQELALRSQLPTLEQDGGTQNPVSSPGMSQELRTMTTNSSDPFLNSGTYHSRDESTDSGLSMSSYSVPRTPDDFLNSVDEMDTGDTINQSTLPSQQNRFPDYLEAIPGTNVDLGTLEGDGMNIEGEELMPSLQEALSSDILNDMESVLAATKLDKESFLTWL

Biological target: T1, Flag-tagged BNIP-2 (full length human BNIP-2, pXJ40), overexpressed in HEK293T cells (human) (UniProt Q12982)
T1 sequence: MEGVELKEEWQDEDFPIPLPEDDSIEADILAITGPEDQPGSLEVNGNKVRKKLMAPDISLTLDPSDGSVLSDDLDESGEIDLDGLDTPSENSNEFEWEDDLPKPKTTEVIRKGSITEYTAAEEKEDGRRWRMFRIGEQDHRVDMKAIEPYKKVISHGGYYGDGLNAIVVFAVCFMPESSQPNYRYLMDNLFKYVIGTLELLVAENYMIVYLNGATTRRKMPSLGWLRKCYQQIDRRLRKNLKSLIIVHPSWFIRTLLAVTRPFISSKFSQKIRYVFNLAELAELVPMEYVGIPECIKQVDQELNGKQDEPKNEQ
Assay: co-IP; pull-down of BNIP-2 in the overexpression system (Figure S4D); details not shown

binding: binds
Substance: YAP (LATS1 substrate), found in the pull-down of BNIP-2 in the overexpression system (from UniProt P46937 1-504)
